Reference: article PMC7366913
These are yes or no findings as the source states them, for the method shown.

T1: wild-type Orange Carotenoid Protein from Synechocystis sp. PCC 6803 (Synechocystis sp. PCC 6803), P74102
T1 chain: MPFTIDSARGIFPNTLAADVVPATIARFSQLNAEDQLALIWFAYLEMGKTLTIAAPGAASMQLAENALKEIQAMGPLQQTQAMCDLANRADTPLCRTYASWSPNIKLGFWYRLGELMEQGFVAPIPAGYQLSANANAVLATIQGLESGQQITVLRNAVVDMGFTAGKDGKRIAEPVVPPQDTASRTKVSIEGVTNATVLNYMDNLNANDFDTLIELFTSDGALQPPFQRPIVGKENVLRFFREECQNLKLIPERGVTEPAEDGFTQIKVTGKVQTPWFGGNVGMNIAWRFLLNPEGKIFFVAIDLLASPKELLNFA


What was measured:
[1] = molecular target: OCP-3FH variant of Orange Carotenoid Protein from Synechocystis sp. PCC 6803 (W41F, W101F, W110F, W277H) (Synechocystis sp. PCC 6803) (UniProt P74102); assay: SEC; analytical size-exclusion spectrochromatography (SESC), Superdex 200 Increase 5/150, 20 mM Tris-HCl pH 7.6, 150 mM NaCl, 0.45 ml/min; individual protein at about 50 µM, dark-adapted; apparent Mw from column calibration; both purified
[2] = molecular target: T1, wild-type Orange Carotenoid Protein …; assay: as above; details: remark: other sources report otherwise

| binding [1] | binding [2] | Binder |
| --- | --- | --- |
| no binding (tested: about 50 µM) | – | OCP-3FH variant of Orange Carotenoid Protein from Synechocystis sp. PCC 6803 (W41F, W101F, W110F, W277H) (protein, UniProt P74102 1-316) MPFTIDSARGIFPNTLAADVVPATIARFSQLNAEDQLALIFFAYLEMGKTLTIAAPGAASMQLAENALKEIQAMGPLQQTQAMCDLANRADTPLCRTYASFSPNIKLGFFYRLGELMEQGFVAPIPAGYQLSANANAVLATIQGLESGQQITVLRNAVVDMGFTAGKDGKRIAEPVVPPQDTASRTKVSIEGVTNATVLNYMDNLNANDFDTLIELFTSDGALQPPFQRPIVGKENVLRFFREECQNLKLIPERGVTEPAEDGFTQIKVTGKVQTPHFGGNVGMNIAWRFLLNPEGKIFFVAIDLLASPKELLNFA |
| – | no binding (tested: about 50 µM) | wild-type Orange Carotenoid Protein from Synechocystis sp. PCC 6803, P74102 1-316 (protein) MPFTIDSARGIFPNTLAADVVPATIARFSQLNAEDQLALIWFAYLEMGKTLTIAAPGAASMQLAENALKEIQAMGPLQQTQAMCDLANRADTPLCRTYASWSPNIKLGFWYRLGELMEQGFVAPIPAGYQLSANANAVLATIQGLESGQQITVLRNAVVDMGFTAGKDGKRIAEPVVPPQDTASRTKVSIEGVTNATVLNYMDNLNANDFDTLIELFTSDGALQPPFQRPIVGKENVLRFFREECQNLKLIPERGVTEPAEDGFTQIKVTGKVQTPWFGGNVGMNIAWRFLLNPEGKIFFVAIDLLASPKELLNFA |
